Data published in PubChem BioAssay AID1508600 (Functional Genomics Laboratory (NCATS/FGL), 2020).
In all, about 53,000 sequences went through this assay and about 3,700 (7%) were called active.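 Rule for the calls: active = gene knockdowns whose robust z-score for IL-1 alpha signal is at least 2 or at most -2, so actives lie on both sides; inactive = the rest.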 The list shows a part of the results.

test: Components of the Cytosolic LPS Sensing Pathway: Gene Identification via Genome-wide siRNA Screen; conditions: RAW264.7 macrophages, IL-1a HTRF, actives lie on both sides, screened at 100 nM (by protocol), cells primed 5 h with Pam3CSK4 first;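 note: robust z of the log signal after scaling to non-targeting control siRNA wells of the plate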
In short: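 Knockdown: 100 nM siRNA, 48h, RAW264.7. Stimulation: Pam3CSK4 5 h, then LipidA via TransIT-TKO 24 h. Output: supernatant IL-1a HTRF, negative-control-normalized, log robust z-score; viability by CellTiter-Glo.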

Row | Sequence | z-score
1 | GGAGGAAGAAGAUGAGAUATT against Il4ra | inactive: -1.39
2 | CCGCAUAUUUGGAAUACGATT against Mfsd1 | inactive: -0.512
3 | CCCACUUGUCUACAGCCUATT against Olfr1505 | active: -2.65
4 | GCAGUCUCCAAUUGAGAUUTT against Car13 | inactive: -0.0313
5 | GGUGUAAGGUUGUUUGGUUTT against Adm | inactive: 0.427
6 | CGAAGGUAGCCAGUCACAATT against Ppib | inactive: -0.518
7 | GGAGAAGCUGCCUUUCAUGTT against Erich5 | inactive: 0.55
8 | GGCAAUUAAAGAAGCCCUCTT against Cyp2c40 | inactive: 0.514
9 | GGACAGAGCCUAGAAAACUTT against Mpdu1 | inactive: -1.15
10 | CGUACAUGUACCAAAAUAUTT against Angpt1 | inactive: -0.293
11 | GCGGAUGCUCAGUGAUGGGTT against Tcp10a | inactive: 0.131
12 | GGCUGGUAAUUCACUUAAUTT against Kcnk2 | active: -2.54
13 | GCGGCUUUACAAGGAUGACTT against Elob | active: 2
14 | GGUGAAUGGCAUGACCAUATT against Asb9 | inactive: 0.49
15 | CGAGAAAACACGGACCUCATT against Slc16a6 | inactive: -0.917
16 | CCAACCAGACUUAUUUAAUTT against Zfp37 | inactive: 1.61
17 | GGCCUCUUACAAAGUGAGATT against Supt7l | inactive: -0.265
18 | GGAGGAUAUACACAACAGGTT against Tceal9 | inactive: 1.49
19 | GGUUACCUCAGUUUAAAGATT against Gbf1 | inactive: 0.69
20 | CCUCAAAGUGGAUCAACUGTT against D17H6S53E | inactive: 0.415
21 | CCUAGUUUUGAACAUCAGATT against Il13ra1 | inactive: 0.157
22 | GCGUAAGGAAUUGUCUAACTT against Hoxd12 | active: 4.05

Retrieved one by one from above (2):
Row | Sequence | z-score
18 | GGAGGAUAUACACAACAGGTT against Tceal9 | inactive: 1.49
22 | GCGUAAGGAAUUGUCUAACTT against Hoxd12 | active: 4.05

Later entries.

Row | Sequence | z-score
23 | GGCUUGACUGCUAUUUUAGTT against Csn1s1 | inactive: 0.711
24 | CCGUAAUUUACCAAAGAGATT against Mcmbp | inactive: -0.0618
25 | GGAGGUAAAAAGCAAGACATT against 4930548H24Rik | inactive: 1.9
26 | CGAAAAUACGUCAAAGCUCTT against Abca8b | inactive: -0.656
27 | GUCAUUGCACCAAAAAUGUTT against Olfr1052 | inactive: -1.87
28 | GGAGGGUGUGUGCUAAUGATT against Hnf1b | inactive: 0.765
29 | GGCUCAAAUACAGGAAAUUTT against Tmem45b | inactive: 0.498
30 | GGCAGUCAUUACCUAUCAGTT against Atp7b | inactive: -0.271
31 | CCGAAGUCAACUAAACUUATT against Rmc1 | inactive: 0.732
32 | GGUUGUCUGCUAAACCUGCTT against Hmgn2 | inactive: -0.699
33 | CGUGCGAGACAGCUUUUAATT against Gtf2h3 | inactive: 1.77
34 | GGGAAAAUCCAGCCAUAGUTT against Ubqlnl | inactive: 0.559
35 | GGAUGGUCACGGAAGUUCUTT against Lmf2 | active: 2.36
36 | GGAAAACCCUGGUACUGAUTT against Mpp2 | inactive: -1.28
37 | GGGCUGUGAACACAAGUGUTT against Megf6 | active: 2.02
38 | GGUGGGAAAUUCGUAGACUTT against Pdcd1 | inactive: -0.4
39 | GGAAACCUGCAUCCUAUGATT against Olfr195 | inactive: -0.196
40 | CGACAUUUGUGUUAACCAUTT against Gprc5c | inactive: -0.483
41 | GGAGGUUUUACUCAAACAUTT against Sec14l2 | inactive: 1.35
42 | GCUUGAUCAGGAUAUUUUUTT against Pwwp3b | inactive: -0.058
43 | GCAAUAGUUUACUUGAAGATT against Rpgrip1l | inactive: -0.505
44 | CCUGUUUUCUAUUAUUGCUTT against 9330175E14Rik | inactive: -1.53

Another view of part of the listing above.

| Row | Sequence | z-score |
| --- | --- | --- |
| 2 | CCGCAUAUUUGGAAUACGATT against Mfsd1 | inactive: -0.512 |
| 3 | CCCACUUGUCUACAGCCUATT against Olfr1505 | active: -2.65 |
| 4 | GCAGUCUCCAAUUGAGAUUTT against Car13 | inactive: -0.0313 |

More entries follow:

Row | Sequence | z-score
45 | GGUGAACAAAGGAAAGAAUTT against Trpv2 | inactive: -0.405
46 | GCUUGUUCGAGCAAGCAAGTT against Ccnt1 | inactive: -0.582
47 | GGAAAAGAGCUCGUCUCAGTT against Il15 | inactive: -1.45
48 | GGUCAAUGAACAGCACCGGTT against Igfbp2 | inactive: 0.723
49 | CCUUUCUCUAAGGAGUUAUTT against Zfp945 | inactive: 0.3
50 | GGCCAUCAAAGAAACUAGCTT against Tas2r139 | inactive: 1.94
51 | GGAGUUUCAAAGUGCGAGUTT against Rin1 | inactive: -0.298
52 | GGUGUUGUAAAAUUCCUCATT against Ncoa7 | active: -2.08
53 | GCACCUUAAAAAUGAAGAUTT against Esyt2 | inactive: -0.423
54 | GGCCGUUAUUAAAUUCAUATT against Twsg1 | inactive: -0.609
55 | GCAUUGGGCAAAUGUCUGGTT against Olfr933 | inactive: 0.2
56 | AUAGUGGAACCCUUUGUACTT against Olfr1195 | inactive: -0.832
57 | GGAAUACGACAGAACUCCATT against Extl1 | inactive: 0.218
58 | GGGAACACAAAACCAUUUCTT against Olfr1299 | inactive: 0.183
59 | GGCUCAAAUUCGAAAACACTT against Zfp235 | inactive: 0.675
60 | GGGUGAUAGCUCCUAUGUGTT against Nalcn | inactive: -1.07
61 | GCUUAGCCAUCAAUGAGGATT against Cog6 | inactive: 0.251
62 | CCAUUAAAAACCCAGAGGATT against Lyve1 | inactive: 0.0705
63 | CCGAGGACUACAAGGUAUATT against Trappc2l | inactive: -1.61
64 | GGCUGGAGAGGAAAUGAAUTT against Mrpl51 | inactive: 0.185
65 | GGUGGUUCGCACAGAAAGUTT against Slc25a38 | inactive: -1.47
66 | GCAGAGUCACCUUACUAACTT against Fam122b | inactive: -0.0407

Row | Sequence | z-score
67 | GGAACUAUAUACGAUGAUGTT against Usp8 | inactive: -0.316
68 | GGAGAACAAAGAUUUCGUGTT against Lhfpl4 | inactive: -0.897
69 | GGGAGCAUUGGCCAGAGUUTT against Olfr20 | inactive: 0.877
70 | GGUGAUUCGAAAGAACCUGTT against Sh3pxd2a | inactive: -0.771
71 | GCUCUGUCGUGAAGAAUGCTT against F11 | inactive: 0.535
72 | GGAACUUUUCAUCCUGAAGTT against Fgl1 | inactive: 0.0919
73 | GCCCAUUGACGUAAUUCUCTT against Vmn1r198 | inactive: -1.24
74 | GGCCCUAAACAAGUUAUCUTT against BB014433 | inactive: -0.544
75 | GGUGGUCCAGAAUUUUGCATT against Cotl1 | inactive: 0.386
76 | GGAAGACUUCGUGUUGACATT against Proz | inactive: 0.223
77 | CCAGUAUCUAAUUGGAAUATT against Paqr8 | active: 2.07
78 | GGCUCAAAGUUUUCAGAGATT against Kctd14 | inactive: -0.0155
79 | GGCCUGGAGCUUUUAUAUUTT against 3110053B16Rik | inactive: -0.681
80 | CCUGUUUCUAGAGCUGGAGTT against A630001O12Rik | inactive: 0.000246
81 | CAUUUACAUUCUUAUUACCTT against Olfr473 | inactive: -1.43
82 | CCGAGUGUAAACUUCAAAUTT against Vash2 | inactive: 0.212
83 | CGACGAAUCUCACACGCUGTT against H2-T23 | inactive: 1.2
84 | GGAGAAAAAAUACUUGAUGTT against Ppm1d | inactive: 1.48
85 | GGUGACACCCAGAAUGAGCTT against Htatsf1 | inactive: 1.81
86 | CGUACUUCAGCGAUUUAAATT against Exoc2 | inactive: 0.555
87 | GCGACUUCGGAAGAUCUAUTT against Srl | inactive: 1.32
88 | GGACUACAUCAACCUGGAUTT against Mlf2 | inactive: 0.25

Row | Sequence | z-score
89 | GGCCUUGCUUUCAUAAAGUTT against Mrpl49 | inactive: 0.348
90 | GGAUCAAUGAAAAUGAGAATT against Fzr1 | inactive: -0.0554
91 | GGACAUGAAACUCUGCACCTT against Drd2 | inactive: 1.27
92 | GGACGUGACUCUCAUCAUCTT against Atp2b3 | inactive: 0.929
93 | UUUUAGGUUCCCUGGAAUGTT against Mrgprb5 | inactive: 0.678
94 | GCUGAAAAAGUGGAAAUCGTT against Psma4 | inactive: -0.794
95 | GGCCAGAGGUGCAAUAUUGTT against Notch2 | inactive: 1.19
96 | GGAUGUGGAGCAAGUGAAGTT against Stx1b | active: -2.05
97 | GGAAUGCUUCAAAAGGGCATT against Fkbp1b | inactive: 0.427
98 | GCUCUGUCCAAGCACUUUATT against P2rx4 | inactive: -0.626
99 | GGAGUUUUACGCACUCUGUTT against Med29 | inactive: 0.117
100 | GCUCUUCGAGUAAAUCACATT against Zfp108 | inactive: -0.761
101 | GAAAUCAGAAGAAAUGAAGTT against Phgr1 | inactive: -0.451
102 | GGUAAACAUGAUAUUUGGGTT against Olfr670 | inactive: -0.277
103 | CCAUGGUUCUGAUCAAUUUTT against Cyp2j11 | inactive: -0.274
104 | GGCCUUCUUGCCAACUACATT against Ino80c | inactive: 0.866
105 | GGGUUAGUAAUGAAUGAUGTT against Arpc5l | inactive: -0.77
106 | GGAUACCACUUUAGAACCATT against Fgfr2 | inactive: 0.484
